According to PubChem BioAssay AID493014 (National Center for Advancing Translational Sciences (NCATS), 2011):
This is one part of the list. Shown are side measurements of this screen, not its main read-out; they come without a call. Most of these compounds were active or inconclusive in the main read-out, so they are no random draw. The note in brackets gives the kind of curve behind each potency; many fits are weak.

Experiment: qHTS Assay to Find Inhibitors of Chronic Active B-Cell Receptor Signaling
Conditions: ABC-DLBCL IkBa-CBG/CBR reporter, luminescence ratio (green luciferase fused to IkBa over red control in TMD8 lymphoma cells), 4 h
Method in brief: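 Doxycycline induced both beetle luciferases in TMD8 lymphoma cells; IKK-driven degradation limits the IkappaBalpha-fused green signal, while red luminescence normalises for cell number and nonspecific effects. Compounds tested up to 46 uM, 4 hrs.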

[1] = measured here: CBR red luminescence, cell number

| SMILES | AC50 [1] | AC50 (measured here: IkBa-CBG green luminescence) |
| --- | --- | --- |
| CCN(CC(=O)NCc1cccs1)C(=O)c1ccc([N+](=O)[O-])o1 | 3.26 µM [rising, full curve] |  |
| COc1ccc(C2Nc3ccccc3C(=O)N2Cc2ccccc2)cc1COc1ccc(Cl)cc1Cl (stereo unspecified) | 8.2 µM [rising, partial curve, poor fit] |  |
| CCOC(=O)c1c(C)[nH]c(C(=O)OCC(=O)NC(C)C)c1C | 6.51 µM [falling, full curve, poor fit] |  |
| c1ccn(-c2ccc(N3CCOCC3)cc2)c1 | 0.282 µM [rising, full curve, poor fit] |  |
| CS(=O)(=O)c1ccc2nc(NC(=O)c3ccc(N4C(=O)CCC4=O)cc3)sc2c1 | 8.91 µM [rising, partial curve, poor fit] |  |
| COc1c(OC(C)=O)ccc(/C=C/c2ccc3cccc(OCc4ccccc4)c3n2)c1[N+](=O)[O-] | 16.4 µM [rising, single point] |  |
| Cc1[nH][nH]c(=O)c1C(c1ccc2c(c1)OCO2)c1c(C)[nH][nH]c1=O | 10 µM [falling, partial curve] |  |
| COc1nc(-c2ccccc2Cl)ccc1C#N | 23.1 µM [rising, single point] |  |
| COCCn1c(=S)[nH]c2cc(C(=O)N3CCc4ccccc43)ccc2c1=O | 2.06 µM [falling, full curve] | 5.17 µM [rising, partial curve, poor fit] |
| O=C(CSc1nnnn1-c1ccc(O)cc1)Nc1ccc(N2CCOCC2)c(Cl)c1 | 14.6 µM [rising, partial curve, poor fit] |  |
| CCCCCCCCCCNC(=O)C(=O)Nc1ccccn1 | 1.46 µM [rising, partial curve, poor fit] |  |
| COc1ccccc1-n1c(CNc2ccc(F)cc2)nnc1SCC(=O)Nc1cc(C)on1 | 0.461 µM [falling, full curve] |  |
| CCOC(=O)c1ccc(NC(=O)c2cc3ccccc3o2)cc1 | 0.447 µM [falling, full curve] |  |
| CCOc1ccccc1NC(=O)C(c1ccccc1)N1CCN(CC(=O)N2CCCC2)CC1 (stereo unspecified) | 0.259 µM [rising, partial curve, poor fit] |  |
| COc1cccc2cc(C(N)=O)oc12 | 17.8 µM [falling, partial curve, poor fit] |  |
| COc1ccc(/C=C2/SC(=S)N(CCCC(=O)N3CCN(C)CC3)C2=O)cc1 | 1.41 µM [falling, full curve] |  |
| CCCC(=O)OC(C(=O)Nc1cc(C(F)(F)F)ccc1Cl)c1ccccc1 (stereo unspecified) | 4.11 µM [rising, full curve, poor fit] |  |
| CC(C)(C)c1ccc(OC(=O)Nc2ccc(O)c(C(=O)O)c2)cc1 | 4.47 µM [rising, full curve, poor fit] |  |
| CCN(CC)S(=O)(=O)c1ccc(N2CCN(C)CC2)c(NC(=O)COc2ccc(F)cc2Cl)c1 | 0.58 µM [falling, full curve, poor fit] |  |
| Nc1nc2ccccc2n1C(=O)CCc1ccccc1 | 2.31 µM [falling, full curve, poor fit] |  |

| SMILES | AC50 [1] | AC50 (measured here: IkBa-CBG green luminescence) |
| --- | --- | --- |
| CCn1c(SCC(=O)Nc2ccc(C)cc2)nnc1-c1ccccn1 | 20 µM [falling, single point] |  |
| Oc1ccc(CCNc2ncnc3ccc(Cl)cc23)cc1 | 3.55 µM [falling, partial curve, poor fit] |  |
| O=C(COc1cccc2ccccc12)N/N=C/c1ccccc1OCc1ccc(C(=O)O)cc1 | 2.51 µM [falling, partial curve, poor fit] |  |
| O=C(CSc1ccc(Cl)cc1)Nc1ccc(N2CCN(c3ccccc3)CC2)c(F)c1 | 35.5 µM [falling, partial curve, poor fit] |  |
| C=CCc1ccc(OCCCCN2CC(C)OC(C)C2)c(OC)c1 (stereo unspecified) | 1.03 µM [rising, full curve, poor fit] |  |
| O=C(/C=C/c1cccc([N+](=O)[O-])c1)NCCSc1ccccc1 | 14.1 µM [falling, partial curve] |  |
| N#Cc1cc2ccccc2nc1SCC(=O)NC1CC1 | 10 µM [falling, partial curve] |  |
| CCOC(=O)C1=NN(C(=O)Nc2cccc(C(F)(F)F)c2)C2C(=O)N(c3cccc(C(F)(F)F)c3)C(=O)C12 (stereo unspecified) | 0.00461 µM [rising, full curve, poor fit] |  |
| O=C(Cc1ccccc1)Nc1nc(-c2ccc(F)c(F)c2)cs1 | 20 µM [rising, partial curve, poor fit] |  |
| O=C(CCCSc1nc2sc3c(c2c(=O)[nH]1)CCC3)NCCCO | 8.91 µM [falling, partial curve] |  |
| Cc1ccc(C(C)C)c(OCCNC(=O)c2ccccc2O)c1 | 35.5 µM [falling, single point] |  |
| Cc1cc(C(=O)OCC(=O)Nc2ccc(F)c(F)c2)c(C)o1 | 2.91 µM [falling, single point] |  |
| C/C(=N\NC(=O)c1ccccc1F)c1ccc2c(c1)Nc1ccccc1S2 | 9.2 µM [falling, partial curve, poor fit] |  |
| O=C(Cn1cc(-c2nnnn2-c2ccc(Cl)cc2)c(=O)c2ccccc21)c1ccccc1 | 7.08 µM [falling, partial curve, poor fit] |  |
| c1ccc(CSc2nnc(-c3ccco3)o2)cc1 | 8.91 µM [rising, partial curve, poor fit] |  |
| COc1cccc(C2c3[nH]c4ccccc4c3CCN2C(=O)c2ccccc2F)c1OC (stereo unspecified) | 12.6 µM [falling, single point] |  |
| CCNC(=S)N1CCN(C(c2ccccc2)c2ccccc2)CC1 | 32.6 µM [falling, single point] |  |
| Cc1cc(C)c2c(N)c(C(=O)Nc3ccc([N+](=O)[O-])cc3)sc2n1 | 0.447 µM [rising, full curve, poor fit] |  |
| CS(=O)(=O)c1ccccc1-c1nnc(NC(=O)c2ccc(S(=O)(=O)N3CCCC3)cc2)o1 | 25.9 µM [falling, single point] |  |
| O=C(NNC(=O)c1ccccc1O)c1ccc(Br)cc1 | 1.26 µM [falling, full curve] |  |

As a working copy, part of the list above:

| SMILES | AC50 [1] | AC50 (measured here: IkBa-CBG green luminescence) |
| --- | --- | --- |
| Cc1cc(C)c2c(N)c(C(=O)Nc3ccc([N+](=O)[O-])cc3)sc2n1 | 0.447 µM [rising, full curve, poor fit] |  |
| CS(=O)(=O)c1ccccc1-c1nnc(NC(=O)c2ccc(S(=O)(=O)N3CCCC3)cc2)o1 | 25.9 µM [falling, single point] |  |
| O=C(NNC(=O)c1ccccc1O)c1ccc(Br)cc1 | 1.26 µM [falling, full curve] |  |
